Earlier results as cited in patent US10899732B2, “Substituted benzamides useful as sodium channel blockers” (GENENTECH, INC., priority 2015, dated 2021).

Conditions: administered topically; cited from earlier work

## CCN(CC)CC(=O)Nc1c(C)cccc1C [lidocaine]
  plasma concentrations: about 1 μM
